{"source": "PubChem BioAssay AID330", "about": "(DTP/NCI, 2004)", "system": "P388 leukemia ip, CD2F1 mice, survival T/C", "test": "NCI In Vivo Anticancer Drug Screen. Data for tumor model P388 Leukemia (intraperitoneal) in CD2F1 (CDF1) mice", "conditions": "T/C endpoint: median survival time, higher T/C = longer survival", "key": {"[1]": {"conditions": "dose: 5.0 mg/kg/injection, schedule: Q01DX009 (ip), vehicle: saline"}}, "note": "The list shows only some results of the screen, not a fair sample: its compounds were picked by chemical class. Not every dose and run of a compound is shown. T/C gives the treated animals as a percentage of the vehicle group. For survival time, the PubChem record calls one and a half times the control and up active, and a quarter to a half above the control has no call in these data; cut-offs in other NCI protocols can differ. Schedules are NCI's codes, taken here to give the interval after Q, in days (D) or hours (H), and the number of doses after X. Some entries show no survivor count and are marked so; the dose need not have been tolerated. Some entries hold several experiments; the values are given in rising order."}
{"smiles": "CC(COC(=O)C(O)(c1ccccc1)c1ccccc1)N1CCCCCCCC1", "note": "(centres undefined)", "values": [{"measurement": "T/C", "setting": "dose: 50.0 mg/kg/injection, schedule: Q04DX003 (ip), vehicle: saline with Tween-80", "value": "107 % of control [survivor count not shown]"}, {"measurement": "T/C", "setting": "dose: 100.0 mg/kg/injection, schedule: Q04DX003 (ip), vehicle: saline with Tween-80", "value": "108 % of control [survivor count not shown]"}, {"measurement": "T/C", "setting": "dose: 200.0 mg/kg/injection, schedule: Q04DX003 (ip), vehicle: saline with Tween-80", "value": "110 % of control [survivor count not shown]"}, {"measurement": "T/C", "setting": "dose: 400.0 mg/kg/injection, schedule: Q04DX003 (ip), vehicle: saline with Tween-80", "value": "124 % of control [survivor count not shown]"}]}
{"smiles": "ClCCN(CCCl)C1CCCCC1", "values": [{"measurement": "T/C", "setting": "dose: 0.6 mg/kg/injection, schedule: Q01DX009 (ip), vehicle: saline", "value": "98 % of control [survivor count not shown]"}, {"measurement": "T/C", "setting": "dose: 0.62 mg/kg/injection, schedule: Q01DX009 (ip), vehicle: saline", "value": "99 % of control [survivor count not shown]"}, {"measurement": "T/C", "setting": "dose: 1.25 mg/kg/injection, schedule: Q01DX009 (ip), vehicle: saline", "value": "110 [survivor count not shown] and 111 % of control [survivor count not shown]"}, {"measurement": "T/C", "setting": "dose: 2.5 mg/kg/injection, schedule: Q01DX009 (ip), vehicle: saline", "value": "129 [survivor count not shown] and 135 % of control [survivor count not shown]"}, {"measurement": "T/C", "setting": "[1]", "value": "138 [survivor count not shown] and 141 % of control [survivor count not shown]"}]}
{"smiles": "CC(C)C(O)(C(=O)OCC1=CCC2CCC1N2C)c1ccccc1", "note": "(centres undefined)", "values": [{"measurement": "T/C", "setting": "dose: 6.25 mg/kg/injection, schedule: Q04DX002 (ip), vehicle: saline, evaluated on day 30", "value": "99 % of control"}, {"measurement": "T/C", "setting": "dose: 6.25 mg/kg/injection, schedule: Q04DX002 (ip), vehicle: saline, evaluation day not shown", "value": "100 % of control [survivor count not shown]"}, {"measurement": "T/C", "setting": "dose: 12.5 mg/kg/injection, schedule: Q04DX002 (ip), vehicle: saline, evaluated on day 30", "value": "100 % of control"}, {"measurement": "T/C", "setting": "dose: 12.5 mg/kg/injection, schedule: Q04DX002 (ip), vehicle: saline, evaluation day not shown", "value": "100 [survivor count not shown] and 114 % of control [survivor count not shown]"}, {"measurement": "T/C", "setting": "dose: 25.0 mg/kg/injection, schedule: Q04DX002 (ip), vehicle: saline, evaluated on day 30", "value": "90 % of control"}, {"measurement": "T/C", "setting": "dose: 25.0 mg/kg/injection, schedule: Q04DX002 (ip), vehicle: saline, evaluation day not shown", "value": "100 [survivor count not shown] and 123 % of control [survivor count not shown]"}, {"measurement": "T/C", "setting": "dose: 50.0 mg/kg/injection, schedule: Q04DX002 (ip), vehicle: saline, evaluated on day 30", "value": "99 % of control"}, {"measurement": "T/C", "setting": "dose: 50.0 mg/kg/injection, schedule: Q04DX002 (ip), vehicle: saline, evaluation day not shown", "value": "95 [survivor count not shown] and 97 % of control [survivor count not shown]"}]}
{"smiles": "ClCCCC(Cl)CNCCCl", "note": "(centres undefined)", "values": [{"measurement": "T/C", "setting": "dose: 1.0 mg/kg/injection, schedule: Q01DX009 (ip), vehicle: saline", "value": "95 % of control [survivor count not shown]"}, {"measurement": "T/C", "setting": "dose: 2.0 mg/kg/injection, schedule: Q01DX009 (ip), vehicle: saline", "value": "100 % of control [survivor count not shown]"}, {"measurement": "T/C", "setting": "dose: 3.3 mg/kg/injection, schedule: Q01DX009 (ip), vehicle: saline", "value": "100 % of control [survivor count not shown]"}, {"measurement": "T/C", "setting": "dose: 4.0 mg/kg/injection, schedule: Q01DX009 (ip), vehicle: saline", "value": "100 % of control [survivor count not shown]"}, {"measurement": "T/C", "setting": "[1]", "value": "109 % of control [survivor count not shown]"}, {"measurement": "T/C", "setting": "dose: 7.5 mg/kg/injection, schedule: Q01DX009 (ip), vehicle: saline", "value": "86 % of control [survivor count not shown]"}, {"measurement": "T/C", "setting": "dose: 8.0 mg/kg/injection, schedule: Q01DX009 (ip), vehicle: saline", "value": "115 % of control [survivor count not shown]"}, {"measurement": "T/C", "setting": "dose: 12.5 mg/kg/injection, schedule: Q01DX009 (ip), vehicle: saline sonified", "value": "136 % of control [survivor count not shown]"}, {"measurement": "T/C", "setting": "dose: 16.5 mg/kg/injection, schedule: Q04DX003 (ip), vehicle: saline", "value": "117 % of control [survivor count not shown]"}, {"measurement": "T/C", "setting": "dose: 25.0 mg/kg/injection, schedule: Q01DX009 (ip), vehicle: saline sonified", "value": "181 % of control [survivor count not shown]"}, {"measurement": "T/C", "setting": "dose: 25.0 mg/kg/injection, schedule: Q04DX003 (ip), vehicle: saline sonified", "value": "131 % of control [survivor count not shown]"}, {"measurement": "T/C", "setting": "dose: 25.0 mg/kg/injection, schedule: Q04DX003 (ip), vehicle: saline", "value": "139 % of control [survivor count not shown]"}, {"measurement": "T/C", "setting": "dose: 37.5 mg/kg/injection, schedule: Q04DX003 (ip), vehicle: saline", "value": "173 % of control [survivor count not shown]"}, {"measurement": "T/C", "setting": "dose: 50.0 mg/kg/injection, schedule: Q04DX003 (ip), vehicle: saline sonified", "value": "118 % of control [survivor count not shown]"}]}
{"smiles": "ClCCN(CCCl)C1CCCc2ccccc21", "note": "(centres undefined)", "values": [{"measurement": "T/C", "setting": "dose: 3.13 mg/kg/injection, schedule: Q01DX009 (ip), vehicle: Klucel (hydroxypropylcellulose) (HPC)", "value": "152 % of control [survivor count not shown]"}, {"measurement": "T/C", "setting": "dose: 6.25 mg/kg/injection, schedule: Q01DX009 (ip), vehicle: Klucel (hydroxypropylcellulose) (HPC)", "value": "125 [survivor count not shown] and 178 % of control [survivor count not shown]"}, {"measurement": "T/C", "setting": "dose: 12.5 mg/kg/injection, schedule: Q01DX009 (ip), vehicle: Klucel (hydroxypropylcellulose) (HPC)", "value": "132 [survivor count not shown] and 160 % of control [survivor count not shown]"}, {"measurement": "T/C", "setting": "dose: 25.0 mg/kg/injection, schedule: Q01DX009 (ip), vehicle: Klucel (hydroxypropylcellulose) (HPC)", "value": "133 % of control [survivor count not shown]"}]}
{"smiles": "Cc1cc(C)cc(CN(CCCl)CCCl)c1", "values": [{"measurement": "T/C", "setting": "dose: 1.7 mg/kg/injection, schedule: Q01DX009 (ip), vehicle: saline", "value": "138 % of control [survivor count not shown]"}, {"measurement": "T/C", "setting": "dose: 2.6 mg/kg/injection, schedule: Q01DX009 (ip), vehicle: saline", "value": "142 % of control [survivor count not shown]"}, {"measurement": "T/C", "setting": "dose: 6.25 mg/kg/injection, schedule: Q01DX009 (ip), vehicle: saline", "value": "150 % of control [survivor count not shown]"}, {"measurement": "T/C", "setting": "dose: 6.25 mg/kg/injection, schedule: Q04DX003 (ip), vehicle: saline with Tween-80", "value": "118 % of control [survivor count not shown]"}, {"measurement": "T/C", "setting": "dose: 12.5 mg/kg/injection, schedule: Q01DX009 (ip), vehicle: saline", "value": "170 % of control [survivor count not shown]"}, {"measurement": "T/C", "setting": "dose: 12.5 mg/kg/injection, schedule: Q04DX003 (ip), vehicle: saline with Tween-80", "value": "127 % of control [survivor count not shown]"}, {"measurement": "T/C", "setting": "dose: 18.75 mg/kg/injection, schedule: Q04DX003 (ip), vehicle: saline", "value": "154 % of control [survivor count not shown]"}, {"measurement": "T/C", "setting": "dose: 25.0 mg/kg/injection, schedule: Q04DX003 (ip), vehicle: saline with Tween-80", "value": "127 % of control [survivor count not shown]"}, {"measurement": "T/C", "setting": "dose: 28.13 mg/kg/injection, schedule: Q04DX003 (ip), vehicle: saline", "value": "150 % of control [survivor count not shown]"}]}
